Reference: PubChem BioAssay AID1347423 (Functional Genomics Laboratory (NCATS/FGL), 2020)
The campaign covered roughly 52,000 sequences. About 210 (0.4%) were called active.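 How the source made its calls: active means gene whose silencing raises cell survival under the drug, median off-target-corrected z-score across its silencing RNAs 2 or more; inactive means the rest.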 Some of the results follow.

Test: Resistance to Poly (ADP-Ribose) Polymerase inhibitor: Gene Identification via Genome-wide siRNA Screen
Conditions: mouse BRCA2 R2336H ES cells, olaparib, CellTiter-Glo viability; stronger effect = higher value
Summary of the method: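 Mouse BRCA2 R2336H ES cells were reverse-transfected with siRNA (20 nM final), treated at 48 h with 500 nM olaparib, and read by CellTiter-Glo after 72 h. Scores: MAD-based z per siRNA, median per gene, seed off-target correction.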

| Sequence | z-score |
| --- | --- |
| CGAGAUUAUCAGUCAAUUGTT against LOC541463 | inactive: 1.32 |
| GCAGUGUAACUGGUAAAAUTT against AI553587 | inactive: 1.55 |
| CGUGUUCUAUGAUGGUAAUTT against 1300018J18Rik | inactive: 0.901 |
| GGGACUGCUCUUUUCUCUCTT against Rabif | inactive: 0.11 |
| GCUGUCAUUCUGUGGUCCATT against Olfr538 | inactive: -0.00326 |
| GGGAUCUUCGGAACUUAGUTT against Pde1a | inactive: 0.84 |
| GCGGAGAGUUAAUGUUUCUTT against Cbx3 | inactive: -0.826 |
| GCACGAAUGCCUUUUUAGATT against 4930548G07Rik | inactive: 0.15 |
| GGAUUUUCGGGACUCUUUATT against Sfmbt1 | inactive: -2.31 |
| CCCUCAAAUAACAUCCAGGTT against 1700029G01Rik | inactive: -3.61 |
| GGUGCUGAUUGACCUAACATT against Wdtc1 | inactive: -0.931 |
| GGAAUAUCUGAUAUCAGUATT against Mamdc1 | inactive: -0.992 |
| GGAUCAGAUAAAAUACCAATT against Oas2 | inactive: -1.32 |
| GGGUCCUGAUAAUGUCCUATT against Tlr1 | inactive: 0.66 |
| GGAAUGUGUCUUCUCAAGUTT against A530021J07 | inactive: 0.911 |
| GGUCACAACCAUGAAGAGCTT against 1700093K21Rik | inactive: -0.947 |
| GGUGGUAGAACUGUUAAAATT against Klc2 | inactive: 1.22 |
| GGAAUUUGAGAUCUACACUTT against Zfp398 | inactive: 0.532 |
| CCCAGUUUAAGCACUUACATT against Ebaf | inactive: 1.21 |
| GGUAAAUUACAAAGUGAAGTT against 5730469M10Rik | inactive: -0.696 |
| GCCCUUACGUGGUAAAACCTT against Gm784 | inactive: 0.929 |
| GGAGAACGUGGUACAAAGUTT against Sncg | inactive: -1.36 |
| GGCCUAUCUUCCCAGGAAATT against Mapk1 | active: 1.76 |
| CCCACUAAAAUCCUAUCUCTT against Ggta1 | inactive: -0.651 |
| GGAUUUAAUGUACUAUGUGTT against 2210408I21Rik | inactive: 0.558 |
| GCAAUGCAGUACUAAACUCTT against Cabc1 | inactive: -0.105 |

| Sequence | z-score |
| --- | --- |
| GGAAUGUGUUCCAUAAUUUTT against Syn2 | inactive: -1.63 |
| GGAGCUGGAUUCGACGUGATT against Cacna1c | inactive: 1.46 |
| GCAGGAUACAAUGUAAAGCTT against Rab6 | inactive: -0.487 |
| GCCUAAAGCGGCCAAACCATT against Hist1h1e | inactive: -1.05 |
| GGGACUUUGGUCAAUAAUGTT against Tcf19 | inactive: -0.162 |
| CCCUGGUCCAUCUCUAGUGTT against 2410043F08Rik | inactive: 1.1 |
| GGAUGAAGAUGUGUCAAUATT against Api5 | inactive: -0.409 |
| GCACAUUUAACUUCAGUCATT against Tgn | inactive: -0.58 |
| GGACUGAUUGCUUUAGUAATT against Olfr1184 | inactive: -0.885 |
| GGAAAAUACAGCUUUGUAATT against D12Ertd551e | inactive: -0.882 |
| GGAAGAAUGCCUACUGAUATT against A030012M09Rik | inactive: 0.585 |
| GGGAAUUUAAUUUUUCGUGTT against Sfn | inactive: 1.04 |
| GCGAAACUUCCAGAUCUAGTT against D1Bwg0212e | inactive: -1.53 |
| GGAAAUGUGGGAGAAAAUATT against H2-M1 | inactive: -1.86 |
| GCAGUGUUAGACUUUUAUGTT against 2410011O22Rik | inactive: 0.894 |
| GCUGUUACCCUUAUGCAGCTT against 2610524B01Rik | inactive: 0.8 |
| GGAUUUAUAGACAAGUUCUTT against 9830130M13 | inactive: 2.59 |
| GGCUCAAGAAAGUGAAUGATT against Myog | inactive: -0.717 |
| GCCGAUAGCGGGAUUUAUUTT against Itsn1 | inactive: -0.702 |
| GCAAAAAAUGCUCAGUUAGTT against 4932411L21Rik | inactive: -0.463 |
| GGAUAUUCGUUACCAUUAUTT against BC024479 | inactive: 0.261 |
| CCCAUUGUAUUCAUCAGAGTT against LOC436240 | inactive: 0.0614 |
| CCUUUUUUCAUGUUAAUGGTT against Lmod1 | inactive: 1.27 |
| GGGUAAUUGAAUGACUGAGTT against 8430432M10Rik | inactive: -1.41 |
| GGCACAAGAACCAUUUCUGTT against Nfe2l3 | inactive: -1.28 |
| GGAAUAGAAGCUUUCACUGTT against A630023P12Rik | inactive: -0.511 |

| Sequence | z-score |
| --- | --- |
| CCCUUAGUGAACUUCUGUUTT against Tubb2 | inactive: 0.142 |
| GGACAAGAAAAAGGAUUAGTT against Clptm1 | inactive: 1.35 |
| GGUUCUUUUUGCCACAGCCTT against 5730472N09Rik | inactive: -0.112 |
| GGUGAAGAGACUGGAGAACTT against Sdpr | inactive: -2.88 |
| GGCGAGAAACCAUACCUGUTT against Glis1 | inactive: 0.431 |
| GCAUAUGAACCUAAAACCCTT against D130060H24Rik | inactive: 0.0762 |
| GGUGUGACCAUCAAGCAUGTT against Nek8 | inactive: -0.308 |
| GGAUGUCAAUGAGUUUGCATT against Clstn2 | inactive: -0.0561 |
| CGUAAUCAGUGCAGUAAACTT against A130081B01 | inactive: -0.649 |
| GGUAUUCUCUAAGAAGGAGTT against Ccbl1 | inactive: -0.635 |
| CGAUGGAAGCACUUAUUUATT against Lep | inactive: 1.38 |
| GGAGAGAAAGAACUGGAAATT against A130092J06Rik | inactive: 0.997 |
| CCGACAAAUAAAGGCUUUATT against Ddx52 | inactive: -0.0103 |
| GGACUUCACCUACAGCAAGTT against Nr1h2 | inactive: 0.462 |
| GCGGGAGCUACACACGAUUTT against Dolpp1 | inactive: -0.937 |
| GGACCAGAGGUUAAUUUAUTT against Herpud1 | inactive: 1.4 |
| CGUGACUGCACUUUAAGUATT against Pirb | inactive: 0.74 |
| GCUAGAAAUAAGGCUGCACTT against BC026778 | inactive: -1.54 |
| GGCUGUAAAACCCAAUCUATT against Top3a | inactive: 1.42 |
| GCCAAUGCCCUUGUGCAAATT against Olfr344 | inactive: 0.401 |
| GCCAGGUACAUUCUUUGUGTT against Tnfrsf7 | inactive: -0.192 |
| GGCGUGGCAACAUGGACAATT against 6530411B15Rik | inactive: -0.18 |
| GCCCGUAGAUAUGAUCUUCTT against V1rk1 | inactive: 0.667 |
| GGAAGCUGAUGAAUAUGUUTT against Acly | inactive: 0.0318 |
| GGAAGACUUGAUAGAUGAATT against C4 | inactive: 0.0169 |
| GCUUAACGGGAGUUAUGAGTT against Capn9 | inactive: 1.72 |

A different layout for some results above:
Sequence,z-score
GGCUGUAAAACCCAAUCUATT against Top3a,inactive: 1.42
GCUUAACGGGAGUUAUGAGTT against Capn9,inactive: 1.72

(continued)

| Sequence | z-score |
| --- | --- |
| GAAGUCAUGGUUCCUACCATT against Clcn1 | inactive: 0.425 |
| GGACUGAACCGUUUUAAAGTT against Fmo3 | inactive: -0.243 |
| GGGUUGAAUAUGUAGCUUGTT against Dsg1a | inactive: -0.497 |
| GGCAAGGUAUCCUCACUUGTT against Arpp19 | inactive: -1.39 |
| CGAGGCACCAGAUUUGUAATT against 4631423F02Rik | inactive: -0.439 |
| CCUGUACAAUUGACCUACATT against Serpinb1c | inactive: -1.19 |
| GGAUAUACCAUCAAUGUACTT against Hdac6 | inactive: 1.07 |
| GGGCUAUGAGGUAACCACUTT against Ahcy | inactive: -0.576 |
| GCGGCUUACUCAAAUCAAGTT against D2Ertd485e | inactive: 0.123 |
| CGACAAAAUUACCAGGUCATT against Hmx3 | inactive: 0.863 |
| GCAUGGCACUUUUUUAUACTT against Olfr1365 | inactive: 0.801 |
| GCUAUUUUUAUAAGGGCCATT against Aps | inactive: -0.213 |
| GGGCACACGUACCAACUAUTT against 2210008I11Rik | inactive: -2.16 |
| CCGGGUGCUGUUCUAUAAGTT against Pecam1 | inactive: 0.0651 |
| GGAACUCAGAGUGUACGCATT against E030006K04Rik | inactive: -0.33 |
| GGACUAUUCUACCAAGUACTT against Txnl4 | inactive: -2.12 |
| GGAGAUGAUACAUAAUCUATT against Psmd12 | inactive: -1.18 |
| GCAGAGGCUCGUCCAUAUATT against Dnpep | inactive: 0.44 |
| GGGAACCUUACUGUGUUAUTT against Gpr85 | inactive: -0.237 |
| GGACGUGUGGCUGUUGACATT against Sdc1 | inactive: -2.23 |
| CGCGAGUUUUUCUUUAAUGTT against Hoxd11 | inactive: 0.328 |
| GGUCAACAUCACCUUCAAUTT against Scarb1 | inactive: -1.15 |
| GGCAUCUCUGAGUUACAUUTT against Ssfa1 | inactive: -0.287 |
| GGCCUGCUAUCGUUCAGAATT against Mkln1 | inactive: -0.516 |
| GGAAUCUCGGAGGAAAACUTT against Hyou1 | inactive: 0.534 |
| GCCUGUGGGAACUGACUAATT against 4931406H21Rik | inactive: -2.56 |

Part of the list above, in CSV form.
Sequence,z-score
GGGCUAUGAGGUAACCACUTT against Ahcy,inactive: -0.576
GCGGCUUACUCAAAUCAAGTT against D2Ertd485e,inactive: 0.123
CGACAAAAUUACCAGGUCATT against Hmx3,inactive: 0.863
GCAUGGCACUUUUUUAUACTT against Olfr1365,inactive: 0.801
GCUAUUUUUAUAAGGGCCATT against Aps,inactive: -0.213
GGGCACACGUACCAACUAUTT against 2210008I11Rik,inactive: -2.16
CCGGGUGCUGUUCUAUAAGTT against Pecam1,inactive: 0.0651
GGAACUCAGAGUGUACGCATT against E030006K04Rik,inactive: -0.33
GGACUAUUCUACCAAGUACTT against Txnl4,inactive: -2.12
GGAGAUGAUACAUAAUCUATT against Psmd12,inactive: -1.18
GCAGAGGCUCGUCCAUAUATT against Dnpep,inactive: 0.44
GGGAACCUUACUGUGUUAUTT against Gpr85,inactive: -0.237
GGACGUGUGGCUGUUGACATT against Sdc1,inactive: -2.23
CGCGAGUUUUUCUUUAAUGTT against Hoxd11,inactive: 0.328
GGUCAACAUCACCUUCAAUTT against Scarb1,inactive: -1.15
GGCAUCUCUGAGUUACAUUTT against Ssfa1,inactive: -0.287
GGCCUGCUAUCGUUCAGAATT against Mkln1,inactive: -0.516
GGAAUCUCGGAGGAAAACUTT against Hyou1,inactive: 0.534
GCCUGUGGGAACUGACUAATT against 4931406H21Rik,inactive: -2.56
